These results are taken from patent publication US20180002437A1 (ABRUZZO THERANOSTIC S R L, published 2018).

Amino acid sequences for entries named in this document (tags omitted). A change or cut given only in a name is not applied to a line headed by its entry.
UniProt P09758: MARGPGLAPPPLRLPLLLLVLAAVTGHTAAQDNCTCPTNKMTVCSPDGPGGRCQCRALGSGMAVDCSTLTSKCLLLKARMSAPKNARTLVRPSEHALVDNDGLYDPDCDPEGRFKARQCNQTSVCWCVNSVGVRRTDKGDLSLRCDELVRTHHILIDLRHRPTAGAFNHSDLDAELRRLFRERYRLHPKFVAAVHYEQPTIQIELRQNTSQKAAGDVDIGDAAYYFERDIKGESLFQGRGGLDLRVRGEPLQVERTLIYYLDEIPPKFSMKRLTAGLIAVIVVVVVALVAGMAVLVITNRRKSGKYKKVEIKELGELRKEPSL

Test [1] addresses recombinant human Trop-2-Fc fusion protein (rhTrop2; Cat. #650-T2-100, R&D Systems) (human) (UniProt P09758). Nature of the test: ELISA on rhTrop2, antibodies transient from HEK293. A general note: An ELISA detects its analyte on a solid surface through an enzyme-linked reagent.
The target is the same in test [2]. Briefly: competitive ELISA on rhTrop2, competitor of mouse 2G10.
Test [3] addresses cynomolgus monkey (Macaca fascicularis) Trop-2 on COS-7 transfectants (cynomolgus monkey (Macaca fascicularis)). Briefly: flow cytometry, COS-7 stable transfectants. (Flow cytometry measures light scatter and fluorescence of single cells or particles in a stream.)
The target is the same in test [4]. Nature of the test: flow cytometry, COS-7 transfectants, Hu2G10-5 labelled with Alexa-488.
Test [5] concerns the target recombinant human Trop-2-Fc fusion protein (rhTrop2; Cat. #650-T2-100, R&D Systems) (human) (UniProt P09758). Nature of the test: ELISA, plate coated with 0.1 ug/ml rhTrop2, antibodies transient from HEK293.
The target is the same in test [6]. Nature of the test: competitive ELISA on rhTrop2, competitor of biotinylated mouse 2EF.
The target is the same in test [7]. Nature of the test: ELISA, plate coated with 1 ug/ml rhTrop2.
For test [8], the target named is cynomolgus monkey (Macaca fascicularis) Trop-2 on COS-7 transfectants (cynomolgus monkey (Macaca fascicularis)). Briefly: flow cytometry, COS-7 transfectants, Hu2EF-7 labelled with Alexa-488.
The target of test [9] is recombinant human Trop-2-Fc fusion protein (rhTrop2; Cat. #650-T2-100, R&D Systems) (human) (UniProt P09758). Nature of the test: ELISA, plate coated with 0.1 ug/ml rhTrop2, HEK293 culture supernatants.
For test [10] the target is unchanged. Nature of the test: ELISA, plate coated with 0.1 ug/ml rhTrop-2, antibodies transient from HEK293.

Where a chain is given by its changes, count along the chain named. In names and notes the source's numbering stands. These are yes or no findings as the source states them, for the method shown. Some results given as binding are weak or reduced against the parent protein; the word gives no strength.

B1: chimeric 2G10 IgG1/kappa antibody (Ch2G10) (antibody, V domains shown)
VH: QGQMQQSGAELVKPGASVKLSCKTSGFTFSSSYISWLKQKPRQSLEWIAWIYAGTGGTSYNQKFTGKAQLTVDTSSSTAYMQLSSLTSEDSAIYYCARHNPRYYAMDYWGQGTSVTVSS
VL: ETTVTQSPASLSMAIGEKVTIRCITSTDIDDDMNWYQQKPGEPPKLLISEGNTLRPGVPSRFSSSGYGTDFVFTIENMLSEDVADYYCLQSDNLPYTFGGGTKLEIKR
notes: also called Ch2G10-IgG1/k
In the case of B1, the binding entry in [1] and in [2] was “binds” throughout.

B2: humanized Hu2G10-1 antibody (Hu2G10 VH1 and VL1, IgG1/kappa) (antibody, V domains shown)
VH: QVQLVQSGAEVKKPGASVKVSCKASGFTFSSSYISWLRQAPGQRLEWIAWIYAGTGGTSYNQKFTGKATLTVDTSASTAYMELSSLRSEDTAVYYCARHNPRYYAMDYWGQGTTVTVSS
VL: DIQMTQSPSSLSASVGDRVTITCITSTDIDDDMNWYQQKPGKAPKLLISEGNTLRPGVPSRFSGSGYGTDFTFTISSLQPEDIATYYCLQSDNLPYTFGGGTKVEIK
As to B2, the binding entry in [1] was “binds”.

B3: humanized Hu2G10-6 antibody (Hu2G10 VH2 and VL3, IgG1/kappa) (antibody, V domains shown)
VH: B2 VH with K67R, A68V
VL: DTQMTQSPSSLSASVGDRVTITCITSTDIDDDMNWYQQKPGKAPKLLISEGNTLRPGVPSRFSGSGYGTDFTFTISSLQPEDIATYYCLQSDNLPYTFGGGTKVEIKR
As for B3, the binding result in test [2] is recorded as “binds”.

B4: humanized Hu2G10-3 antibody (Hu2G10 VH2 and VL1, IgG1/kappa) (antibody, V domains shown)
VH: B2 VH with K67R, A68V
VL: B2 VL
B4: in test [1], the binding result is given as “binds”.

B5: humanized Hu2G10-5 antibody (Hu2G10 VH1 and VL3, IgG1/kappa) (antibody, V domains shown)
VH: B2 VH
VL: B3 VL
Turning to B5, the binding result in [3], in [1], in test [2] and in test [4] was “binds” in each case.

B6: humanized Hu2EF-5 antibody (VH5-Hu2EF and VL1-Hu2EF, IgG1/kappa) (antibody, V domains shown)
VH: QVQLVQSGAEVKKPGASVKVSCKASGYTFTNYWIGWVRQAPGQGLEWIGDIYPGGGYTNYNEKFKGRATLTADTSTSTAYMELSSLRSEDTAVYYCARGTGGGDYWGQGTLVTVSS
VL: DIVMTQSPDSLAVSLGERATINCRASQSVSTSSYSYMHWYQQKPGQPPKLLIKYASNLESGVPDRFSGSGSGTDFTLTISSLQAEDVAVYYCQHSWEIPYTFGQGTKLEIK
notes: human IgG1/kappa constant regions
Take B6: the binding result in test [5], in test [6] and in test [7] was “binds” each time.

B7: humanized Hu2EF-7 antibody (Hu2EF VH7 and VL2, IgG1/kappa) (antibody, V domains shown)
VH: B6 VH with R38K, T76A
VL: DIVLTQSPDSLAVSLGERATINCRASQSVSTSSYSYMHWYQQKPGQPPKLLIKYASNLESGVPDRFSGSGSGTDFTLTISSLQAEDVAVYYCQHSWEIPYTFGGGTKLEIKR
Regarding B7, the binding result in [8], in test [3] and in test [9] was “binds” in each case.

B8: Hu2EF variant VH-R38K (Hu2EF VH4 with R38K = Hu2EF VH7) with unmodified Hu2EF VL1 (antibody, human IgG1, V domains shown)
VH: B6 VH with R38K, T76A
VL: B6 VL
As to B8, the binding result in test [10] is “binds”.

B9: humanized Hu2EF-4 antibody (VH4-Hu2EF and VL1-Hu2EF, IgG1/kappa) (antibody, V domains shown)
VH: B6 VH with T76A
VL: B6 VL
notes: as for B6
On to B9, for which the binding result in test [6] and in test [7] was “binds” throughout.

B10: chimeric 2EF IgG1/kappa antibody (Ch2EF) (antibody, V domains shown)
VH: QVQLQQSGAELVRPGTSVKMSCKAAGYTFTNYWIGWVKQRPGHGLEWIGDIYPGGGYTNYNEKFKGKATLTADTSSSTAYMQLSSLTSEDSAIYYCARGTGGGDYWGQGTLVTVSA
VL: DIVLTQSPASLAVSLGQRATISCRASQSVSTSSYSYMHWYQQKPGQPPKLLIKYASNLESGVPARFSGSGSGTDFTLNIHPVEEEDTATYYCQHSWEIPYTFGGGTKLEIK
As to B10, the binding entry in test [5] and in test [9] was “binds” in each case.

B11: mouse 2EF antibody (hybridoma PD 08021) (antibody, V domains shown)
VH: B10 VH
VL: B10 VL
notes: Mouse monoclonal purified from the hybridoma; also called murine 2EF
Consider B11, for which the binding entry in test [7] is given as “binds”.
